Measurements: patent EP4692116A1 (Kexing Biopharm Co., Ltd., dated 2026)
Results are given in words; binding and its absence hold for the method and conditions named. Some binding calls cover weakened binding; strength is not graded here. Where a sequence is shown, tags or fusion partners need not be part of it.

T1: NRTN protein (Novoprotein, Cat# CE27) (human) (UniProt Q99748)
T1 sequence (looked up): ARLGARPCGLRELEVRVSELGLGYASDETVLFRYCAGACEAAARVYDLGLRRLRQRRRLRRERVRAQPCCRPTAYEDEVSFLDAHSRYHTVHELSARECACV

T2: human GDF15 protein (Novoprotein, Cat# DRA26) (human) (UniProt Q99988)
T2 sequence (looked up): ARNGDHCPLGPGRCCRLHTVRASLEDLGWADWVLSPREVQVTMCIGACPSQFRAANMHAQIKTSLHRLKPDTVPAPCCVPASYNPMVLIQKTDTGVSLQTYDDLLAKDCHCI

T3: ARTN protein (Novoprotein, Cat# CR34) (human) (UniProt Q5T4W7)
T3 sequence (looked up): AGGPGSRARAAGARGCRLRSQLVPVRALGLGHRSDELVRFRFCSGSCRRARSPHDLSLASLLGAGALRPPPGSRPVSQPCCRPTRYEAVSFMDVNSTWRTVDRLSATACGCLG

B1: LN05 GDF15 heavy chain single-domain antibody (full-length, VHH joined to human IgG1 Fc) (antibody, V domains shown)
VH: QVQLVESGGGLVQPGGSLRLSCAASGFTLDYYAIGWFRQAPGKGREGVSCISSNDGSTYYSDSVKGRFTTSRDNAKNTVYLQMNSLKPEDTAVYYCAADLTPCPVNPSVDHYWGQGTQVTVSS
notes: expressed in CHO cells, Protein A purified; No light chain; also called LN05 full-length
B2: LN06 GDF15 heavy chain single-domain antibody (full-length, VHH joined to human IgG1 Fc) (antibody, V domains shown)
VH: QLQLVESGGGLVQPGGSLRLSCVASGFTLDDYAIGWFRQAPGKGLEGVSCISSSDESTYYADSVKGRFTISRDNAKNTAYLQMNSLKPEDTAIYYCAADTECPVQVTSMAWGQGTQVTVSS
notes: expressed in CHO cells; No light chain; also called LN06 full-length
B3: LN13 GDF15 heavy chain single-domain antibody (full-length, VHH joined to human IgG1 Fc) (antibody, V domains shown)
VH: QLQLVESGGGLVQPGGSLRLSCAASGFTLDYYAIGWFRQAPGKGPEAVSCISSSDGSTYYSDSVKGRFTISRDNAKNTVYLQMNSLKPEDTAVYYCAAGEYGSDCPVQVGSWGQGTQVTVSS
notes: expressed in CHO cells; No light chain; also called LN13 full-length
B4: LN25 GDF15 heavy chain single-domain antibody (full-length, VHH joined to human IgG1 Fc) (antibody, V domains shown)
VH: QLQLVESGGGEVQPGGSLRLSCAASGATLDDLSIGWFRQAPGKGLEGVSCISSSDGSTYYADSVKGRFTISRDNAKNTAYLQMNSLRPEDTAVYYCAADREDCPVQPWGIVAGTSRGQGTQVTVSS
notes: expressed in CHO cells; No light chain; also called LN25 full-length
B5: LN11 GDF15 heavy chain single-domain antibody (VHH joined to human IgG1 Fc) (antibody, V domains shown)
VH: QVQLVESGGGLVQPGGSLRLSCAASGFTIRTYTMSWYRQAPGKERALVAYITPGGPTYHIDSVKGRFTISRNNAENTVYLQMNSLKPEDTAVYYCGNGFGSWGQGTQVTVSS

biological target: T1, NRTN protein (Novoprotein, Cat# CE27) (human); experiment: ELISA, NRTN coated, antibody from 2,000 nM

Binder | binding
B1 | binds
B2 | binds
B3 | binds
B4 | binds

biological target: T2, human GDF15 protein (Novoprotein, Cat# DRA26) (human); experiment: ELISA, human GDF15 coated

Binder | binding
B5 | binds

biological target: T3, ARTN protein (Novoprotein, Cat# CR34) (human); experiment: ELISA, ARTN coated, antibody from 2,000 nM

Binder | binding
B1 | binds
B2 | binds
B3 | binds
B4 | binds
